The list shows a part of the results. Most values lie at the level of the controls, where differences are scatter.
Each target was assayed with CN[C@@H]1C[C@H]2O[C@@](C)([C@@H]1OC)n1c3ccccc3c3c4c(c5c6ccccc6n2c5c31)C(=O)NC4 [staurosporine] (assay: log2 fold change of pooled soluble protein (PISA), ligand vs vehicle (log2 ratio); higher = more thermally stabilized). Details: ligand concentration: 20 uM; assay format: PISA pool 52.9/55.5/58.6 C.

Amino acid sequences for entries named in this document (tags omitted). A change or cut given only in a name is not applied to a line headed by its entry.
UniProt Q4LDG0: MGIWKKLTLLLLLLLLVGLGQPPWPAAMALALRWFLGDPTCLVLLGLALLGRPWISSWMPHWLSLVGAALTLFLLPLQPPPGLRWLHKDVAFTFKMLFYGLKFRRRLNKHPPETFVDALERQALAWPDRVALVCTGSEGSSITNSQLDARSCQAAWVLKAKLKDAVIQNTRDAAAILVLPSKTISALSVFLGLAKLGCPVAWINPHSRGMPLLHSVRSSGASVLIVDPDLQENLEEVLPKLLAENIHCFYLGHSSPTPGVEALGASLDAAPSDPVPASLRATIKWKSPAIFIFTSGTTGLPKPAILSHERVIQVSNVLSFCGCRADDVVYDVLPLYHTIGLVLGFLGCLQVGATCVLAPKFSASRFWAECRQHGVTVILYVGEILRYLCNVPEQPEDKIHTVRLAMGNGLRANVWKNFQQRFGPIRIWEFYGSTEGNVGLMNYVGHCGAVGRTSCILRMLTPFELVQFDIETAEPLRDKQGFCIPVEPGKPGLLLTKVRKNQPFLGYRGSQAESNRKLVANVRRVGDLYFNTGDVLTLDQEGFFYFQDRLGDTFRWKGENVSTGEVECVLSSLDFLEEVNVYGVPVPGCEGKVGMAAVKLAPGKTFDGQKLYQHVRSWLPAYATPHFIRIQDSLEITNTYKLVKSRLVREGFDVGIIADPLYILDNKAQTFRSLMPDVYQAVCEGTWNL
UniProt Q3TTY5: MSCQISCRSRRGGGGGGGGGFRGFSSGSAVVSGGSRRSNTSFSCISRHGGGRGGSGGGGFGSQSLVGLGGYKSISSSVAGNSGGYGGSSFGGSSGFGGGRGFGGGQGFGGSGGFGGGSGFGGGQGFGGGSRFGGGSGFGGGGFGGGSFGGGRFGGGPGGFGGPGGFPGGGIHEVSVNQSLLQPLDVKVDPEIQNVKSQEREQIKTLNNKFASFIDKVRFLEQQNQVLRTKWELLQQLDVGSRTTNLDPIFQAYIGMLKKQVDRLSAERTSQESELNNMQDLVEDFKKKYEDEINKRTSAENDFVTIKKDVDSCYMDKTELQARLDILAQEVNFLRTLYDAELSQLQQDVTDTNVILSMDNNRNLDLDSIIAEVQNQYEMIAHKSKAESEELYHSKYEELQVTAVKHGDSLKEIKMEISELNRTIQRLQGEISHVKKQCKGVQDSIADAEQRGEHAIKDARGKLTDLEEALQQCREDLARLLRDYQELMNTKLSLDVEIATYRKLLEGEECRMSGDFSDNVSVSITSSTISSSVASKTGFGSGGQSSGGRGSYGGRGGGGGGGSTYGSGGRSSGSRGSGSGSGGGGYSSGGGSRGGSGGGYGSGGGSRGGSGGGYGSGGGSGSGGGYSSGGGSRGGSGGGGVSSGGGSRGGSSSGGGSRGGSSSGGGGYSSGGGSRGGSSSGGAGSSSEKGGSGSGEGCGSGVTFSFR
UniProt Q08857: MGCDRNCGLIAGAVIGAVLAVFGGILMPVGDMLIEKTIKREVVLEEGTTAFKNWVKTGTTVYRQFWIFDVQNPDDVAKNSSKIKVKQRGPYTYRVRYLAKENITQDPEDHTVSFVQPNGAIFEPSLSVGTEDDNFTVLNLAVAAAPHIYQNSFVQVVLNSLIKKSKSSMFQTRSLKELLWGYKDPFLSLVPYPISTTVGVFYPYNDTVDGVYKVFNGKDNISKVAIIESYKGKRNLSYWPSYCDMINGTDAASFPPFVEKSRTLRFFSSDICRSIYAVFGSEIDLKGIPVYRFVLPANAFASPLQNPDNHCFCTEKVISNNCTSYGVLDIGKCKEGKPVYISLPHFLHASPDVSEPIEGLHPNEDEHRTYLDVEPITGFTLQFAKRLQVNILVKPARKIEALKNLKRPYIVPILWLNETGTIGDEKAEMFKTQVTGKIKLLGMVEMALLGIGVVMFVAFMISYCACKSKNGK
UniProt Q3UIU2, whole entry: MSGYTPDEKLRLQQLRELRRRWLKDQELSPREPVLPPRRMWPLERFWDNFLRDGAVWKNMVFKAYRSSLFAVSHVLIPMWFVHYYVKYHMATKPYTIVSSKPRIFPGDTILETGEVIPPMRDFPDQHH
UniProt Q3UD01: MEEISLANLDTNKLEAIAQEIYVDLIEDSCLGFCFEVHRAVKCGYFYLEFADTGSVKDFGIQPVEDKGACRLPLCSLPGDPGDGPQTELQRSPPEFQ
UniProt Q3UZ39: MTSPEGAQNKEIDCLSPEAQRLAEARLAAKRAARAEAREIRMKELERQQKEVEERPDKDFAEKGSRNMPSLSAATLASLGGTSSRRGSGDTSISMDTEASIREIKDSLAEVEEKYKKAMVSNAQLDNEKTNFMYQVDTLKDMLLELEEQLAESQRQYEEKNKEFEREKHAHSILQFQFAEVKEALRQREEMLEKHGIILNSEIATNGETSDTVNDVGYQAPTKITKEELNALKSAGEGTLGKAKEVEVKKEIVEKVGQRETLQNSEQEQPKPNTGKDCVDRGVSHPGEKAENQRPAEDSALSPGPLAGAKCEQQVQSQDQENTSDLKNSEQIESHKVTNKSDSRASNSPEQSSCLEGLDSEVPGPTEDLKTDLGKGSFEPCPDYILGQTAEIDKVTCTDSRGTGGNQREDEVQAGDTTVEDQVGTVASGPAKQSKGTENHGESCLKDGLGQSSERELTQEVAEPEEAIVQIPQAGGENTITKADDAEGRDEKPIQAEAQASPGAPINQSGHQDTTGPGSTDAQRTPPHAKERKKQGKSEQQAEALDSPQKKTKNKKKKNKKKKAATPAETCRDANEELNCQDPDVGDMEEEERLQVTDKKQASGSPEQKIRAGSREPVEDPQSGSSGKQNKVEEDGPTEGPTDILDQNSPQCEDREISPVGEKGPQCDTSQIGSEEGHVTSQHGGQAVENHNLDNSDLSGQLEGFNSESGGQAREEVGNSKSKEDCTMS
UniProt Q3TC33: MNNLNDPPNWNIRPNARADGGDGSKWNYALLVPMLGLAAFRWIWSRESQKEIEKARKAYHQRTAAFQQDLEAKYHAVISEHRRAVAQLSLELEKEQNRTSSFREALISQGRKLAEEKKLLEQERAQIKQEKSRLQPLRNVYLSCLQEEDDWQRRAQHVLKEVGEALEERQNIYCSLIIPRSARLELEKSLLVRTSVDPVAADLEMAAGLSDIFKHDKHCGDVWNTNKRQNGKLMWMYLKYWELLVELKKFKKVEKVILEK
UniProt Q5DU09: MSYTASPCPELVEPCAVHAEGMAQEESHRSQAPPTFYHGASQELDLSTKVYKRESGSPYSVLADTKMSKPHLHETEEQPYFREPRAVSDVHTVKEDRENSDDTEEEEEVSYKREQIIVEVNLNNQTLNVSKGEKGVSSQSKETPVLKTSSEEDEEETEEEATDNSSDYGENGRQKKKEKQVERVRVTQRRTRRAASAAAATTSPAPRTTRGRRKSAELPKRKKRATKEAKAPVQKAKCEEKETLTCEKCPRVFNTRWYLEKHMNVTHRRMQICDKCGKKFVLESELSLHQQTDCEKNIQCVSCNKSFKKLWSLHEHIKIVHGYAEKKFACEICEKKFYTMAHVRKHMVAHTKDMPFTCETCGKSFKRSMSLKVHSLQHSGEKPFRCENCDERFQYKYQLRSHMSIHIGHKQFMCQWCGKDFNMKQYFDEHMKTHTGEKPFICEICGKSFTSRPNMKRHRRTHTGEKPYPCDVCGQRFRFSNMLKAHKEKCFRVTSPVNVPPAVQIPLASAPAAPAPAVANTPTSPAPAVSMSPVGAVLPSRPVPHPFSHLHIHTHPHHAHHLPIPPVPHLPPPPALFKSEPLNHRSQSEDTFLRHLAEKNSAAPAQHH
UniProt Q07079, whole entry: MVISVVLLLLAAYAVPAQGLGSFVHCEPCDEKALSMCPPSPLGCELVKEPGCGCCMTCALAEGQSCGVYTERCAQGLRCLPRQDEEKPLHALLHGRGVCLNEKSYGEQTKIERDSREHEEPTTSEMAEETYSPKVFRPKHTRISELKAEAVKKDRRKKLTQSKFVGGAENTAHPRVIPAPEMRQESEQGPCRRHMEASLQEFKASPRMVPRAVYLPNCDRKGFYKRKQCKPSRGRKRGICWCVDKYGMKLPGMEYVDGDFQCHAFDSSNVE
UniProt Q3UNX5: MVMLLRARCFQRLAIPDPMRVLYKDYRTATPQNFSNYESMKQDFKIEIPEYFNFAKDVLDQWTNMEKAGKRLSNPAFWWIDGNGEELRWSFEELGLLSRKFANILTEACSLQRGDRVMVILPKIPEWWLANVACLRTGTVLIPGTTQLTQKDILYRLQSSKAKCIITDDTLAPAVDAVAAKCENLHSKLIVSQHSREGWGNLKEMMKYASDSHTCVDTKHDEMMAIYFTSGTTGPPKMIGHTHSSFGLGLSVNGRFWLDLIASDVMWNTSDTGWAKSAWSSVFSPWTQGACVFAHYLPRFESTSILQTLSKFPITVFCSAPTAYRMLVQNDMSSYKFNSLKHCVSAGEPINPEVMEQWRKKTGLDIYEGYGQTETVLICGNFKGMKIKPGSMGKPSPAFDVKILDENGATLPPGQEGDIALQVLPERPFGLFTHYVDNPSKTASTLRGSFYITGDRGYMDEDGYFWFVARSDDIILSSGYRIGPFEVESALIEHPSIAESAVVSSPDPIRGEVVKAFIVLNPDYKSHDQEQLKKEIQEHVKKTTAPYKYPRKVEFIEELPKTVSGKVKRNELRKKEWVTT
UniProt Q5RJG7: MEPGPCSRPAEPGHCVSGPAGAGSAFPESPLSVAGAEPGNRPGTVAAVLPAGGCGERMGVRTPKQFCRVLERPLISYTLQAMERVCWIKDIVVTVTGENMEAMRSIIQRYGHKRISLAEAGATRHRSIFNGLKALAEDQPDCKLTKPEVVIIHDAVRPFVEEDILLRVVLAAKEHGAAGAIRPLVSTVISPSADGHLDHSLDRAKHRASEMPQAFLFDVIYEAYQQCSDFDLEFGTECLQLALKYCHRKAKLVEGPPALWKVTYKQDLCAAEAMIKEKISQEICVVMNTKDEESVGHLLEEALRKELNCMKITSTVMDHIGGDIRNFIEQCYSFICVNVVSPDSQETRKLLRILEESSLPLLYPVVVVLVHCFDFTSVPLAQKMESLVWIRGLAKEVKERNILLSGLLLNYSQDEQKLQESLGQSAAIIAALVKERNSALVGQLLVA
UniProt Q3UH60: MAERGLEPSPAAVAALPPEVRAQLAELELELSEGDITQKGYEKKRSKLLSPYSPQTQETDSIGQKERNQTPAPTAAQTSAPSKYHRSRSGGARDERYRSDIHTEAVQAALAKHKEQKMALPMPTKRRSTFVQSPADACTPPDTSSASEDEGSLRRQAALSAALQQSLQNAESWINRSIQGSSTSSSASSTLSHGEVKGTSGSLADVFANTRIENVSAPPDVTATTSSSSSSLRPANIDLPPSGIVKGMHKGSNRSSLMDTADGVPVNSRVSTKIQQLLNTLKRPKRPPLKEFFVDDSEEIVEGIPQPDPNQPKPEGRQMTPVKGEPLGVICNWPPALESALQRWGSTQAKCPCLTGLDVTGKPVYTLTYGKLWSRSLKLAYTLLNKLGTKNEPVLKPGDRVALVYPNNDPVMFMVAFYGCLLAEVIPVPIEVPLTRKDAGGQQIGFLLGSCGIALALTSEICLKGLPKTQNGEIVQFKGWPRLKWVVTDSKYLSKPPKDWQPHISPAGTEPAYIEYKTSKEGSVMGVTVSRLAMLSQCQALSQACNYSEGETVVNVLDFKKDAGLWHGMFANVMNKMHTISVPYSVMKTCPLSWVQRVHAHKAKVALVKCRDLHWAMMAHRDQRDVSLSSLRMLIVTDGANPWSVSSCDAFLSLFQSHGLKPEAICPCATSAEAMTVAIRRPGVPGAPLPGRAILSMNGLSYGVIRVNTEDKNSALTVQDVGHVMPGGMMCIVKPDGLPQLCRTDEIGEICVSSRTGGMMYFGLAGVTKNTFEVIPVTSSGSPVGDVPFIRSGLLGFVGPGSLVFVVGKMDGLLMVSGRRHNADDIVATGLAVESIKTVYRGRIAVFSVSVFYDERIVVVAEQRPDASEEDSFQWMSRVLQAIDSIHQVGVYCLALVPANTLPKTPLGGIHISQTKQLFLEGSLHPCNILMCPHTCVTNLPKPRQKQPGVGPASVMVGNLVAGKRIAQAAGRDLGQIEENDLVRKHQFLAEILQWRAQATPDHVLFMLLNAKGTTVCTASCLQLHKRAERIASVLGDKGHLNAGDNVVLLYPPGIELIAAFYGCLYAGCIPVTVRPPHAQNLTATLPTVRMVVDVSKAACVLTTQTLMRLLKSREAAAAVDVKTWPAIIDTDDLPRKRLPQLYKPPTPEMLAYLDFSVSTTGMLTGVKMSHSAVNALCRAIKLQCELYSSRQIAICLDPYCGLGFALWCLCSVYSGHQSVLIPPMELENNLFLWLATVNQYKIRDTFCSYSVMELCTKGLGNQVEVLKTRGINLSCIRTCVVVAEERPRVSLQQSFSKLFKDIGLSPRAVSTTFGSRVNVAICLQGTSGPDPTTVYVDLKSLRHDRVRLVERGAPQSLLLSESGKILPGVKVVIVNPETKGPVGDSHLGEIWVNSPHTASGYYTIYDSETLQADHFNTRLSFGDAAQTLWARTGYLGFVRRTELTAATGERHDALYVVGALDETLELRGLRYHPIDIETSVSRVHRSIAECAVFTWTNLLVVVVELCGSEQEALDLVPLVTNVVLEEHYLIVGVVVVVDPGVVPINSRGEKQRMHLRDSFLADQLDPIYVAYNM

| Target | log2 fold change of pooled soluble protein |
| --- | --- |
| UniProt Q03160 | -0.0756 |
| UniProt Q00897 | -0.0476 |
| UniProt Q571I9 | -0.00357 |
| UniProt Q4LDG0 | -0.0211 |
| UniProt Q3UA37 | -0.116 |
| UniProt Q01405 | 0.000736 |
| UniProt Q3TTY5 | 0.138 |
| UniProt Q08857 | -0.0986 |
| UniProt Q3UIU2 | -0.473 |
| UniProt Q3UD01 | -0.114 |
| UniProt Q3U9N9 | 0.0559 |
| UniProt Q0VGB7 | 0.0778 |
| UniProt Q4VAC9 | -0.614 |
| UniProt Q2TPA8 | -0.0271 |
| UniProt P98203 | -0.424 |
| UniProt Q3TN34 | 0.258 |
| UniProt Q3UC65 | 0.172 |
| UniProt Q3UZ39 | 0.000771 |
| UniProt P97798 | -0.0477 |

Two records picked at random from the list so far:

| Target | log2 fold change of pooled soluble protein |
| --- | --- |
| UniProt Q3UD01 | -0.114 |
| UniProt Q03160 | -0.0756 |

Later entries.

| Target | log2 fold change of pooled soluble protein |
| --- | --- |
| UniProt Q05D44 | 0.0577 |
| UniProt Q14C51 | -0.543 |
| UniProt Q3UN02 | -0.154 |
| UniProt Q3TC33 | -0.163 |
| UniProt P97863 | 0.0895 |
| UniProt P99027 | -0.18 |
| UniProt Q0VBL3 | -0.146 |
| UniProt Q571F8 | -0.0787 |
| UniProt P97821 | -0.00461 |
| UniProt Q05816 | -0.0433 |
| UniProt Q5DU09 | 0.68 |
| UniProt Q3TWW8 | -0.0478 |
| UniProt Q07079 | -0.175 |
| UniProt Q3UNX5 | -0.0755 |
| UniProt Q5RJG7 | -0.0162 |
| UniProt Q3TXX3 | -0.00443 |
| UniProt Q3UH60 | -0.321 |
| UniProt Q5HZI1 | -0.0382 |

Source: the supplement of paper PMC12819154, “High-throughput peptide-centric local stability assay extends protein–ligand identification to membrane proteins, tissues and bacteria” (Nature Structural & Molecular Biology, 2025)
